No constants are given. Whether binding was seen depends on the method and setting. Binding seen in cells or lysates may run through a third protein. Some entries that bind do so weakly or less than the wild type.
Columns and labels:
[1] = target: Flag-RNF213 expressed in HEK293T cells (UniProt E9Q555); experiment: co-IP; HEK293T cells transfected with the indicated plasmids for 24 h; Nonidet P-40 lysis buffer, protein G Sepharose, washes with lysis buffer containing 500 mM NaCl, immunoblot
[2] = target: Flag-tagged RNF213 (RING finger protein 213), transgene overexpressed in Treg cells of Rnf213^Tg Foxp3^Cre mice (UniProt E9Q555); experiment: co-IP; lysates of Treg cells isolated from WT or Rnf213^Tg mice; Nonidet P-40 lysis buffer (150 mM NaCl, 1 mM EDTA, 1% NP-40), protein G Sepharose, washes with lysis buffer containing 500 mM NaCl, immunoblot

By UniProt entry, the sequences of proteins in these tests, tags left out.
UniProt E9Q555: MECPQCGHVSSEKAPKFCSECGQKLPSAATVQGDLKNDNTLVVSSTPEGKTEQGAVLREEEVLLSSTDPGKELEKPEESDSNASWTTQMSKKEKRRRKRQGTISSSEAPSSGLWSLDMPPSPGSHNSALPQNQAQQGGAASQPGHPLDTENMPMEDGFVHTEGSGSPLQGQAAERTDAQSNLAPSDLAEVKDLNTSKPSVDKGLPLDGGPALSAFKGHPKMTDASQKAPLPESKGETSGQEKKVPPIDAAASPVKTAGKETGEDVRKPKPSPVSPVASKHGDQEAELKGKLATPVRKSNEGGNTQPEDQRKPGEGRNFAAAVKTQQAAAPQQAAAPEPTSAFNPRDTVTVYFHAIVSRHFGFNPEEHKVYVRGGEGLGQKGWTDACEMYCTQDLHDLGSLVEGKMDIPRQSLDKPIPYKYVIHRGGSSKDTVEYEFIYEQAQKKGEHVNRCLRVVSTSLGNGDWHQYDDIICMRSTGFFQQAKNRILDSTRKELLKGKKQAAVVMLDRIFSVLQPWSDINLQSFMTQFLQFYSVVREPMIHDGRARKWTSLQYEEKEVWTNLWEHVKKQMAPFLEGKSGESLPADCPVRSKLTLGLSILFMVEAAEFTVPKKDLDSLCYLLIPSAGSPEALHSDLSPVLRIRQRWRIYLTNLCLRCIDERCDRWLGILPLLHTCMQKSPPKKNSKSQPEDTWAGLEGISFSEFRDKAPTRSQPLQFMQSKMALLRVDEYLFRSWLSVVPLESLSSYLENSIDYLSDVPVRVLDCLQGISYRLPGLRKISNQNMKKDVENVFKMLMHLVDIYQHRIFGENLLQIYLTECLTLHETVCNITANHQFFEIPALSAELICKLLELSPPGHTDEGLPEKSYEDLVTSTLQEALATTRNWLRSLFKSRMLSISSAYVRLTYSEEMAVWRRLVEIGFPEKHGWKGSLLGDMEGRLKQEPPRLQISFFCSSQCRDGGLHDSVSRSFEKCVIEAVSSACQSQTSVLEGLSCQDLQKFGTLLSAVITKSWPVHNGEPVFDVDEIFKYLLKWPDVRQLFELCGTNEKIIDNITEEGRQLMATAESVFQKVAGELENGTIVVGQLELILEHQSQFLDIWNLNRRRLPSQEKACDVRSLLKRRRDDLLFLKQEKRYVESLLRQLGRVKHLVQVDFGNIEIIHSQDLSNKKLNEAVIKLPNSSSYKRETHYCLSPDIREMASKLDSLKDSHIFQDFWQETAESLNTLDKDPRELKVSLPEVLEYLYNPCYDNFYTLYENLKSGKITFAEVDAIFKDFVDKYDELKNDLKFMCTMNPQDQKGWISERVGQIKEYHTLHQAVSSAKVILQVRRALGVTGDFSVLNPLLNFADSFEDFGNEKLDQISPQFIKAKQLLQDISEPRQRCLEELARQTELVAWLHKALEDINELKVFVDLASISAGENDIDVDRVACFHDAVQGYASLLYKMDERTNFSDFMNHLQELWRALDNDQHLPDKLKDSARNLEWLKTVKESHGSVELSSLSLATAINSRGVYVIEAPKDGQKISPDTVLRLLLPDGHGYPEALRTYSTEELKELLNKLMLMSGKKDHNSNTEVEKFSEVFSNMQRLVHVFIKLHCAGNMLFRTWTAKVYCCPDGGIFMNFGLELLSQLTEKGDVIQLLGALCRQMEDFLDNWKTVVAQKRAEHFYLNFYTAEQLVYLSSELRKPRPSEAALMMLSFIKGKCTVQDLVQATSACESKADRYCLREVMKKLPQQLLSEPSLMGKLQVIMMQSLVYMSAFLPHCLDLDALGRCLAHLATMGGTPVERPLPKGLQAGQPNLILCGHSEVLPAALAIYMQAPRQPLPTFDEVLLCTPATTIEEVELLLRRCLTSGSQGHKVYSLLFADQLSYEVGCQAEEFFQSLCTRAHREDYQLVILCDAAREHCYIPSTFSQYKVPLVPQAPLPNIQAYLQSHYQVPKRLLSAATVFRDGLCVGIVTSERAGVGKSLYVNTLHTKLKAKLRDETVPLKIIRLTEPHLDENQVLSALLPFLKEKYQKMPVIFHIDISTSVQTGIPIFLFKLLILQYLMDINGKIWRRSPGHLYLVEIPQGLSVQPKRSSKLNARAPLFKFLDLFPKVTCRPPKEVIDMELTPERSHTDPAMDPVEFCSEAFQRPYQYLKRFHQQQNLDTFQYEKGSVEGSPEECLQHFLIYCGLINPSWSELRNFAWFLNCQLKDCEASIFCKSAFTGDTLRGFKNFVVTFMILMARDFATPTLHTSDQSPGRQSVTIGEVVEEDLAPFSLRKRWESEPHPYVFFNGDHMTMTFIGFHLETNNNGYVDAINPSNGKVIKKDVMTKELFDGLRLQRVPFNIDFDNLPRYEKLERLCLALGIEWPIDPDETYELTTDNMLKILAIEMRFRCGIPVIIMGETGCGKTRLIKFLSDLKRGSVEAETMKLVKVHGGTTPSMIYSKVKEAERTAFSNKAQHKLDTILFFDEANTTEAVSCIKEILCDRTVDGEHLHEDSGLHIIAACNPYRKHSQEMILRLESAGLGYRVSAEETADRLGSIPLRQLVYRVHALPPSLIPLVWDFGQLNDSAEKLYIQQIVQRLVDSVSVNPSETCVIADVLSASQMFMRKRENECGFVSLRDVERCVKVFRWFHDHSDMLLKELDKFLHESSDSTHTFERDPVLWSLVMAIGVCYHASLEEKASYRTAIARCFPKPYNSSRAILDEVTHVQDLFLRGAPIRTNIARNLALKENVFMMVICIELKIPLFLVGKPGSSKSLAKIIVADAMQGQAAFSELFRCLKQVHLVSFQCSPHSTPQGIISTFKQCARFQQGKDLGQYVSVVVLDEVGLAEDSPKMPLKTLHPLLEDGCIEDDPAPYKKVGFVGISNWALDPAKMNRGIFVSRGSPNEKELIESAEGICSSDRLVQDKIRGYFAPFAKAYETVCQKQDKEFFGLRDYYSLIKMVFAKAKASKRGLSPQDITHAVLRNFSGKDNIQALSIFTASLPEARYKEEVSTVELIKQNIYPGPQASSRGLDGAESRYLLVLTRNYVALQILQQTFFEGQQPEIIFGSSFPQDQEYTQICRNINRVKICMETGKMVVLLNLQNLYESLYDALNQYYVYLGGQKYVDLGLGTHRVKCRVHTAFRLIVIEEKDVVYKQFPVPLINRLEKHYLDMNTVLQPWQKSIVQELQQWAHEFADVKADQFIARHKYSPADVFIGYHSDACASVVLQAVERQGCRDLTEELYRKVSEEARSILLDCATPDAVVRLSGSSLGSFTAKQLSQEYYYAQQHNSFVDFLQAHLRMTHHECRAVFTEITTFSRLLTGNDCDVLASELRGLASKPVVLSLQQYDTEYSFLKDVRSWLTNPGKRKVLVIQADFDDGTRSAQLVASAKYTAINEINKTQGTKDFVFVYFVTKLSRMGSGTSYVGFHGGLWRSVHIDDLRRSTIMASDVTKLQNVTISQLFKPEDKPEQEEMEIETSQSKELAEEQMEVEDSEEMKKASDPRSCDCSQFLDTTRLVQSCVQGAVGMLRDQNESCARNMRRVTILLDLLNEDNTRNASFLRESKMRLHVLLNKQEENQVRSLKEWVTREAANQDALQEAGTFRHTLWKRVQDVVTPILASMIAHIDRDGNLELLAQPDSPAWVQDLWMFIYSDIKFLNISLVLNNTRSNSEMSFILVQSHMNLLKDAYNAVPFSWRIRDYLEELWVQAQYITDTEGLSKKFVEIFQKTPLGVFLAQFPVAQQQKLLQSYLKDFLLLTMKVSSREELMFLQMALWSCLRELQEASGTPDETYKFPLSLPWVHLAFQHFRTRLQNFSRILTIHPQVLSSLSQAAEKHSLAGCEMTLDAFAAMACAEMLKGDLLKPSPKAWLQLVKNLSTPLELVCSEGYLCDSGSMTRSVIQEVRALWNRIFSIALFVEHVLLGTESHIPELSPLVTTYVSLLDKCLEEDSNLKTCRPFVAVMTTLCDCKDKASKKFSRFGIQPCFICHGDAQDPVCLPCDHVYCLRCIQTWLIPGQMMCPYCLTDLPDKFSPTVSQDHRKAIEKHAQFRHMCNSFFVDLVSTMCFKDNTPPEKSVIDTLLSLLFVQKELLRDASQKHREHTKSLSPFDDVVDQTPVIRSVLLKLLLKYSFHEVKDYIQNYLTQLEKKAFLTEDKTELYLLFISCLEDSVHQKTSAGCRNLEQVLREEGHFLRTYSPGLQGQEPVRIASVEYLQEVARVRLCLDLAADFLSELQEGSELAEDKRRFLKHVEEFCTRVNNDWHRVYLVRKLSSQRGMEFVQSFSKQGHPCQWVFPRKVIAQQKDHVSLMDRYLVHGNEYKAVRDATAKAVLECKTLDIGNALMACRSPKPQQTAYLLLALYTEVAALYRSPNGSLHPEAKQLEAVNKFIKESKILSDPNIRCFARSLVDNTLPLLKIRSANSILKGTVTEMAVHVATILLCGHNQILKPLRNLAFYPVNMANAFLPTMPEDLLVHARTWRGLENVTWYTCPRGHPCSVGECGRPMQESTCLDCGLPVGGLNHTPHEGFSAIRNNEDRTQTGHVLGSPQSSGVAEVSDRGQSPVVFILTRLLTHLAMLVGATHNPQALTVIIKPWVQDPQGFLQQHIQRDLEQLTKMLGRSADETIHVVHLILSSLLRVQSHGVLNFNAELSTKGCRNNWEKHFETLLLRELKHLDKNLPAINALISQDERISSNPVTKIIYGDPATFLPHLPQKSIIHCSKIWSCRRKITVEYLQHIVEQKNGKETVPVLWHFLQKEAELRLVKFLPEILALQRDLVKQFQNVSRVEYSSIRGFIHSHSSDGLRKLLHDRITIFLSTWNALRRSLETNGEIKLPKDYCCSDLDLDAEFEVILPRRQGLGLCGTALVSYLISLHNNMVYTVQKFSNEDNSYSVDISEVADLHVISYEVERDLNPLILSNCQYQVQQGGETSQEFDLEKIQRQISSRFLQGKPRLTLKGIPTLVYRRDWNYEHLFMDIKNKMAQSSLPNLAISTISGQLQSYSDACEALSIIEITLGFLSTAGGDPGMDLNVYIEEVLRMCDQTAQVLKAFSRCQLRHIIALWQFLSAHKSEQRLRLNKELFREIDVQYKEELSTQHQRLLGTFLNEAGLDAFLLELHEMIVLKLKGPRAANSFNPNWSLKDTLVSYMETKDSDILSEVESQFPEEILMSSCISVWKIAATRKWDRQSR
UniProt Q9R1E0: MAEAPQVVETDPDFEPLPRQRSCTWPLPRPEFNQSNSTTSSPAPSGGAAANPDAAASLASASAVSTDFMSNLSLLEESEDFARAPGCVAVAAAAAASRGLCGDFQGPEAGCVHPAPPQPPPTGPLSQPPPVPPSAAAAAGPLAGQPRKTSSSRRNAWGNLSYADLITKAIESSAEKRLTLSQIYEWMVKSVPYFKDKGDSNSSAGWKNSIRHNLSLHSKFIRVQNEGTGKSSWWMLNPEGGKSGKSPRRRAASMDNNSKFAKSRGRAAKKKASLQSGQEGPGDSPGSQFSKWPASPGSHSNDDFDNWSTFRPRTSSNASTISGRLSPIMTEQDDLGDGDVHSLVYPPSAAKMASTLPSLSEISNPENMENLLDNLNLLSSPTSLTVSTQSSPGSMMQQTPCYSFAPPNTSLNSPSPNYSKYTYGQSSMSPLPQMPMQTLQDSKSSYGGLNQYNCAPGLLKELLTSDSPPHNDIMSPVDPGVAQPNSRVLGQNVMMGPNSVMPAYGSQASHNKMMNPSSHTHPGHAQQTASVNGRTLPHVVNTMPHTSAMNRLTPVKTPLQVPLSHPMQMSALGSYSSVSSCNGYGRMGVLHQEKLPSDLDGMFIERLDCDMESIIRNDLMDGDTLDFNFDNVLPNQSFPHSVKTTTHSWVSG

Row | binding [1] | binding [2] | Substance
1 | binds | – | Myc-FOXO1 expressed in HEK293T cells (from UniProt Q9R1E0 1-652)
2 | – | binds | Forkhead Box Protein O1 (FOXO1), endogenous in mouse Treg cells (from UniProt Q9R1E0 1-652)
